Results: PubChem BioAssay AID248 (DTP/NCI, 2004)
The list does not hold the whole screen: it is rich in T/C values a quarter to a half above the control, in often repeated tests (any T/C) and in doses without a T/C. Further doses and runs are listed elsewhere. T/C is the treated group as % of the vehicle group. Some entries give survivors of the animals treated and no T/C: the source files T/C as zero there, which appears to mark a toxic dose or a test without result, not a measured value. Some survivor counts are full or nearly so, which does not show that the dose was tolerated: the source hardly ever lists a survival T/C far under the control, and the zero likely stands for such cases as well. Counts of survivors are from the toxicity check (mostly the fifth day) where no day follows; animals may have died later. Schedule codes are those of the source, taken here to give the interval after Q, in days (D) or hours (H), and the number of doses after X. Some doses were run more than once; the values are given in rising order. Some schedule codes hold Z or #, which are not explained here. For survival time, the PubChem record calls one and a half times the control and up active, and a quarter to a half above the control has no call in these data; cut-offs in other NCI protocols can differ.

Tested on: L1210 leukemia ip in BDF1 mice, survival T/C
Assay: NCI In Vivo Anticancer Drug Screen. Data for tumor model L1210 Leukemia (intraperitoneal) in B6D2F1 (BDF1) mice
Settings: T/C endpoint: mean survival time, higher T/C = longer survival
[1] = dose: 100.0 mg/kg/injection, schedule: Q01DX001 (ip), vehicle: saline
[2] = dose: 200.0 mg/kg/injection, schedule: Q01DX001 (ip), vehicle: saline
[3] = dose: 100.0 mg/kg/injection, schedule: Q01DX009 (ip), vehicle: Klucel (hydroxypropylcellulose) (HPC)
[4] = dose: 200.0 mg/kg/injection, schedule: Q01DX009 (ip), vehicle: Klucel (hydroxypropylcellulose) (HPC)
[5] = dose: 400.0 mg/kg/injection, schedule: Q04DX002 (ip), vehicle: saline with Tween-80
[6] = dose: 400.0 mg/kg/injection, schedule: Q01DX001 (ip), vehicle: saline
[7] = dose: 200.0 mg/kg/injection, schedule: Q01DX009 (ip), vehicle: saline with Tween-80
[8] = dose: 400.0 mg/kg/injection, schedule: Q04DX003 (ip), vehicle: saline with Tween-80
[9] = dose: 400.0 mg/kg/injection, schedule: Q01DX001 (ip), vehicle: saline with Tween-80
[10] = dose: 100.0 mg/kg/injection, schedule: Q04DX003 (ip), vehicle: Klucel (hydroxypropylcellulose) (HPC)
[11] = dose: 200.0 mg/kg/injection, schedule: Q04DX003 (ip), vehicle: Klucel (hydroxypropylcellulose) (HPC)
[12] = dose: 400.0 mg/kg/injection, schedule: Q04DX003 (ip), vehicle: Klucel (hydroxypropylcellulose) (HPC)
[13] = dose: 100.0 mg/kg/injection, schedule: Q01DX009 (ip), vehicle: saline with Tween-80
[14] = dose: 400.0 mg/kg/injection, schedule: Q01DX009 (ip), vehicle: saline with Tween-80
[15] = dose: 200.0 mg/kg/injection, schedule: Q01DX001 (ip), vehicle: Klucel (hydroxypropylcellulose) (HPC)
[16] = dose: 400.0 mg/kg/injection, schedule: Q01DX001 (ip), vehicle: Klucel (hydroxypropylcellulose) (HPC)
[17] = dose: 80.0 mg/kg/injection, schedule: Q01DX001 (ip), vehicle: saline

SMILES: Clc1ccccc1/C=N/Nc1c2ccccc2nc2ccccc12
- survivor count [1]: 4 of 4
- survivor count [2]: 4 of 4

SMILES: CN1CCN=C1c1ccc(NC(=O)c2ccc(C(=O)Nc3ccc(C4=NCCN4C)cc3)c(N)c2)cc1
- T/C (dose: 1.5 mg/kg/injection, schedule: Q01DX Z (ip), vehicle: carboxymethylcellulose (CMC)): 131 % of control

SMILES: O=C1C=CC(=O)N1c1cccc(N2C(=O)C=CC2=O)c1
- survivor count (dose: 32.0 mg/kg/injection, schedule: Q04DX003 (ip), vehicle: saline): 0 of 6

SMILES: COc1c(O)c(O)cc2c[n+]3ccccc3c(C)c12
- survivor count [3]: 0 of 3
- survivor count [4]: 0 of 3

SMILES: C(=C(CC1CCC1)CC1CCC1)C1CCC1
- survivor count [5]: 3 of 3

SMILES: CC[N+](CC)(CC)CCNC(c1ccccc1)C(Cl)(Cl)Cl (configuration not stated)
- survivor count [1]: 0 of 4
- survivor count [2]: 0 of 4
- survivor count [6]: 0 of 4

SMILES: CCCCN(C)N=Nc1ccc(CCC(=O)NN)cc1
- survivor count (dose: 22.0 mg/kg/injection, schedule: Q01DX009 (ip), vehicle: carboxymethylcellulose (CMC)): 6 of 6

SMILES: Cc1nnnn1C1CCCCC1I (configuration not stated)
- survivor count (dose: 40.0 mg/kg/injection, schedule: Q01DX001 (ip), vehicle: other): 0 of 6
- survivor count (dose: 75.0 mg/kg/injection, schedule: Q01DX001 (ip), vehicle: other): 0 of 6
- survivor count (dose: 150.0 mg/kg/injection, schedule: Q01DX001 (ip), vehicle: other): 0 of 6
- survivor count (dose: 300.0 mg/kg/injection, schedule: Q01DX001 (ip), vehicle: other): 0 of 6

SMILES: CCOC(=O)C(CCSC(C)=O)SC(C)=O (configuration not stated)
- survivor count [7]: 6 of 6
- survivor count [8]: 0 of 6

SMILES: CNCCCCOC
- survivor count (dose: 400.0 mg/kg/injection, schedule: Q04DX002 (ip), vehicle: saline): 1 of 3

SMILES: CCOC(=O)NNOC(=O)CC
- survivor count [9]: 0 of 3

SMILES: Clc1c(CBr)ccc(CBr)c1Cl
- survivor count [10]: 0 of 6
- survivor count [11]: 2 of 6
- survivor count [12]: 0 of 6

SMILES: N#CCCOc1ccc(Cl)cc1
- survivor count [8]: 3 of 6

SMILES: O=C1c2ccccc2C(=O)N1CBr
- survivor count [13]: 6 of 6
- survivor count [7]: 6 of 6
- survivor count [14]: 5 of 6

SMILES: CCCc1c(OCC)c(OC)c2c3c(c(-c4c(C)cc5c(CCC)c(OCC)c(OC)c6c5c4OC6NNc4ccccc4)c(C)cc13)OC2NNc1ccccc1 (configuration not stated)
- survivor count (dose: 75.0 mg/kg/injection, schedule: Q04DX003 (ip), vehicle: Klucel (hydroxypropylcellulose) (HPC)): 6 of 6
- survivor count (dose: 150.0 mg/kg/injection, schedule: Q04DX003 (ip), vehicle: Klucel (hydroxypropylcellulose) (HPC)): 6 of 6

SMILES: C[CH2][Sn]([Cl])([Cl])[CH2]C.Oc1ccccc1C=NCCN=Cc1ccccc1O
- survivor count (dose: 20.0 mg/kg/injection, schedule: Q01DX009 (ip), vehicle: saline with Tween-80): 2 of 6

SMILES: COc1ccc(OC)c(NC(=O)c2ccc(Cl)c(Cl)c2)c1
- survivor count [14]: 6 of 6

SMILES: C/C=C/C[P+](Cc1cccc(C)c1)(c1ccccc1)c1ccccc1
- survivor count (dose: 12.5 mg/kg/injection, schedule: Q01DX009 (ip), vehicle: saline with Tween-80): 0 of 3
- survivor count (dose: 25.0 mg/kg/injection, schedule: Q01DX009 (ip), vehicle: saline with Tween-80): 1 of 3
- survivor count (dose: 50.0 mg/kg/injection, schedule: Q01DX009 (ip), vehicle: saline with Tween-80): 0 of 3
- survivor count [13]: 0 of 3
- survivor count [7]: 0 of 3

SMILES: O=C(OCc1ccccc1CN1CCCC1)c1ccccc1
- survivor count [15]: 2 of 6
- survivor count [16]: 2 of 6

SMILES: C=CCC1(CC)C(=O)NC(=O)NC1=O
- survivor count [12]: 1 of 6

SMILES: O=C(C[n+]1ccccc1-c1ccccn1)c1ccccc1
- survivor count [17]: 0 of 6

SMILES: [B-][NH2+]C(C)(C)C
- survivor count [1]: 0 of 4
- survivor count [2]: 0 of 4
- survivor count [6]: 0 of 4

SMILES: Cc1ccc(Nc2cc(N)nc(N)n2)cc1
- survivor count (dose: 50.0 mg/kg/injection, schedule: Q01DX Z (ip), vehicle: methylcellulose (MC)): 6 of 6
- survivor count (dose: 100.0 mg/kg/injection, schedule: Q01DX Z (ip), vehicle: methylcellulose (MC)): 1 of 6
- survivor count (dose: 200.0 mg/kg/injection, schedule: Q01DX Z (ip), vehicle: methylcellulose (MC)): 0 of 6

SMILES: c1ccc(C2CC3c4ccccc4C2c2cccc[n+]23)nc1 (configuration not stated)
- survivor count [16]: 1 of 6

SMILES: CCCCC(CC)CNCC(O)CNCC(CC)CCCC (configuration not stated)
- survivor count [3]: 0 of 3
- survivor count [4]: 0 of 3
- survivor count (dose: 400.0 mg/kg/injection, schedule: Q04DX002 (ip), vehicle: Klucel (hydroxypropylcellulose) (HPC)): 0 of 3

SMILES: CS(=O)(=O)OCCC(COS(C)(=O)=O)S(=O)(=O)Cc1ccccc1 (configuration not stated)
- survivor count (dose: 60.0 mg/kg/injection, schedule: Q01DX001 (ip), vehicle: saline): 1 of 6
- survivor count (dose: 75.0 mg/kg/injection, schedule: Q01DX001 (ip), vehicle: saline): 1 of 6
- survivor count (dose: 150.0 mg/kg/injection, schedule: Q01DX001 (ip), vehicle: saline): 0 of 6
- survivor count (dose: 300.0 mg/kg/injection, schedule: Q01DX001 (ip), vehicle: saline): 0 of 6

SMILES: CC(C)(C)C1COP(=S)(C(C)(C)C)OC1 (configuration not stated)
- survivor count [12]: 3 of 6

SMILES: C[N+]1(CCNC2=CC(=O)C(NCC[N+]3(C)CCOCC3)=CC2=O)CCOCC1
- survivor count [1]: 2 of 6
- survivor count [2]: 0 of 6
- survivor count [6]: 0 of 6

SMILES: Nc1ccnc(OCc2ccccc2)n1
- survivor count [9]: 5 of 6

SMILES: c1ccc([Se]c2ccccn2)nc1
- survivor count (dose: 50.0 mg/kg/injection, schedule: Q01DX009 (ip), vehicle: Klucel (hydroxypropylcellulose) (HPC)): 4 of 6
- survivor count (dose: 100.0 mg/kg/injection, schedule: Q01DX001 (ip), vehicle: Klucel (hydroxypropylcellulose) (HPC)): 1 of 6
- survivor count [10]: 3 of 6
- survivor count [15]: 0 of 6
- survivor count [11]: 0 of 6
- survivor count [16]: 0 of 6

SMILES: Cc1nccnc1S(=O)(=O)c1ccc2ccccc2c1
- survivor count [16]: 2 of 6

SMILES: O/N=C/c1c(O)cccc1Cl
- survivor count (dose: 300.0 mg/kg/injection, schedule: Q01DX001 (ip), vehicle: acetone): 1 of 6

SMILES: COc1cc(/C=C/c2ccnc3ccccc23)cc(OC)c1OC
- survivor count [17]: 0 of 6
- survivor count [1]: 0 of 6
- survivor count [2]: 1 of 6
- survivor count [6]: 0 of 6

SMILES: CC(=O)OC1C(NC(=O)OCc2ccccc2)CC(NC(=O)OCc2ccccc2)C(O)C1O (configuration not stated)
- survivor count [8]: 1 of 6

SMILES: Cc1cc(OC(=O)Nc2cccc(Cl)c2C)ccc1[N+](=O)[O-]
- T/C [13]: 96, 97, 100 % of control
- survivor count [13]: 3 of 3
- survivor count [7]: 1 of 3
- survivor count [14]: 2 of 3 and 5 of 6
- survivor count [5]: 1 of 6
- survivor count [8]: 2 of 6

SMILES: NC(=O)/C=C/c1c[nH]c2nccnc12
- survivor count (dose: 50.0 mg/kg/injection, schedule: Q01DX009 (ip), vehicle: water): 1 of 6
- survivor count (dose: 100.0 mg/kg/injection, schedule: Q01DX009 (ip), vehicle: water): 0 of 6
- survivor count (dose: 200.0 mg/kg/injection, schedule: Q01DX009 (ip), vehicle: water): 0 of 6
- survivor count (dose: 400.0 mg/kg/injection, schedule: Q01DX009 (ip), vehicle: water): 0 of 6

SMILES: O=C(Nc1ccc(CCC2=NCCCN2)cc1)c1ccc(C(=O)Nc2ccc(CCC3=NCCCN3)cc2)cc1
- survivor count (dose: 480.0 mg/kg/injection, schedule: Q01DX Z (ip), vehicle: saline): 4 of 6
